Not every detail of the peptide structures is certain; ends, links or a residue may be inferred. Starred links: 1 amine or outer side, 2 acyl side, 3 side chain; linkers in the order of their positions; H or OH if unused. Positions of bridges follow the written chain, without caps; N, C: chain ends. Non-standard residues stand in square brackets, D forms with d. Residues, ends and D or L forms follow the SMILES beside them. Chains are numbered I, II in the order given. BMOE = O=C1CC([*:1])C(=O)N1CCN1C(=O)CC([*:2])C1=O; Aib = CC(C)(N)C(=O)O
How the values were obtained:
BV2 microglia cells = experiment: LPS-induced nitric oxide production in BV2 microglia cells; type: cell-based; details: for EC50: 50% suppression of nitric oxide release from BV2 cells following LPS stimulation
Procedure: FIG. 1. COG 112 inhibits LPS-induced production of inflammatory cytokines in BV2 microglia cells. Inhibition curves for COG112 in the production of NO (green squares), TNFα (red diamonds), and IL-6 (blue triangles) by BV2 microglia. Compounds were added to the final concentrations indicated on the graph along with 100 ng/mL of LPS. After 24 hours the media was removed and assayed by two-site ELISA (BioSource) and quantitated relative to a standard curve on the same plate.
FIG. 3. NO Inhibition curve for COG449. BV2 microglia were treated with COG449 at the final concentrations indicated on the graph, along with 100 ng/mL of LPS. After 24 hours the media was removed and assayed by two-site ELISA (BioSource) and quantitated relative to a standard curve on the same plate.
We also evaluated the various peptides for efficacy in suppressing nitric oxide production induced by LPS stimulation of BV2 microglia cells as a measure of anti-inflammatory activity as well as the maximum dose tolerated in mice (Table I and FIG. 6A). For the LPS assay, EC50 is the concentration of compound that caused a 50% suppression of nitric oxide release from BV2 cells following LPS stimulation. For mouse toxicity, MTD is the maximum dose of the compound that can be given by intravenous injection without causing deaths after 24 hrs. […] Coupling the ApoE domain to a protein transduction domain further enhanced the potency of the dimers.
Low passage BV2 microglial cell cultures are maintained in 10% HI (Heat Inactivated) FBS DMEM media (supplemented with MEM NEAA (Non-Essential Amino Acids), sodium pyruvate and Pen-Strep) and continuously cultured until needed. To determine the IC50 values for NO production, peptides are added to BV2 cultures in 1% HI FBS DMEM media (supplemented with MEM NEAA and sodium pyruvate) at a range of final assay concentrations from 1.0 μM in 2 fold dilutions to 7.8 nM followed immediately by addition of LPS (100 ng/mL final concentration) as previously described (Laskowitz et al. (2001) Exp Neurol, Vol. 167(1): 74-85). After incubating for 18±1 hours, conditioned media is removed for analysis of nitrite (the stable oxidation product of released nitric oxide) by the Griess colorimetric assay (Promega). Remaining cells are assayed for viability in an MTT assay (Promega) and the nitrite assay values are normalized for each concentration using the percent viability of cells in the MTT assay. […] Typically, the absence of LPS exposure to BV2 cells results in levels below the limit of detection in our assays. Similarly, addition of any of the peptides up to 25 μM without LPS results in undetectable NO levels.

Chains of the proteins cited; added tags and fusions are not shown.
UniProt Q01105, whole entry: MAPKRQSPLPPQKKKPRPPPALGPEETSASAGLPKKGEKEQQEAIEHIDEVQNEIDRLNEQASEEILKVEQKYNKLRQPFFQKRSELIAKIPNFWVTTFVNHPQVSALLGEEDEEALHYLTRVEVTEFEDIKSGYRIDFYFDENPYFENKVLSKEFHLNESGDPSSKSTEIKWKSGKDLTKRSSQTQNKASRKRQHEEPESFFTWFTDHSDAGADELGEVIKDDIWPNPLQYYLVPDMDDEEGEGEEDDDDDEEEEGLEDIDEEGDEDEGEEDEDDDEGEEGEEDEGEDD

PP2A = PP2A activity in 32D:BCR/Abl chronic myelogenous leukemia cells (PP2A immunoprecipitation assay); type: cell-based
Procedure: FIGS. 4A-4B. The BMOE-linked dimer peptide COG449 activates PP2A in CML cells. FIG. 4A: 32D-BCR/Abl chronic myelogenous leukemia cells were treated with COG449 (1 μM), COG445 (1 μM) (disulfide-linked COG112 dimer) or no treatment, and the PP2A activity was measured. FIG. 4B: 32D:BCR/Abl cell cultures were treated with no compound, 1 μM COG449, or 5 μM FTY720 for 30 minutes followed by lysis in an NP40 lysis buffer. PP2A was immunoprecipitated and assayed with the PP2A Immunoprecipitation assay kit (Upstate) according to the manufacturer's directions.
To further evaluate the effect of COG449, we measured the ability of the stable dimerized COG449 compound to activate PP2A in 32D:p210^BCR/Abl chronic myelogenous leukemia cells. […] 32D:p210^BCR/Abl chronic myelogenous leukemia cells were treated with no compound, 1 μM COG449, or 5 μM FTY720. We observed a robust increase of approximately 45% relative specific activity (phosphate release/minute/unit protein) of PP2A upon treatment with COG449 alone when compared to the untreated control, and about 20% activation compared with FTY720 (FIG. 4B).

eIF4E = eIF4E phosphorylation in U87MG glioblastoma cells, Western blot; type: cell-based; details: 1 μM, 20 hrs
SET oncoprotein = SET oncoprotein (Homo sapiens, UniProt Q01105); experiment: Binding to SET (affinity purification of binding partners)
normal B-cells = experiment: Cytotoxicity on normal B-cells from volunteers; type: cell-based, human
[1] = tested on: Ramos cell tumor xenografts; experiment: Ramos cell tumor xenografts in SCID mice; type: in vivo
Mcl-1 = Mcl-1 level in primary human CLL cells, immunoblot; type: cell-based; details: 24 hr
MDA-MB-231 xenografts = experiment: MDA-MB-231 TNBC xenografts in NSG mice; type: in vivo; details: 10 mg/kg subcutaneous, or 1 mg/kg intravenous 3-times a week
Procedure: FIGS. 30A-30B. Inhibition of triple negative breast cancer (TNBC) tumor growth in xenografts with COG449 treatment. FIG. 30A: 4×10^6 MDA-MB-231 cells were injected with Matrigel into the 4th mammary glands of immune compromised mice and treated daily by subcutaneous injection of 10 mg/kg COG449 starting at day 10. FIG. 30B: 4×10^6 MDA-MB-231 cells were injected with Matrigel into the 4th mammary glands of immune compromised mice and treated by intravenous tail vein injection 3× week at 1 mg/kg starting at day 27 post injection. Tumor volume was determined by caliper measurement.
To begin assessment of the potential of combination therapies with COG449, we analyzed the effect of treating MDA-231 cells with sub-lethal doses of COG449 and the multi-kinase inhibitor Sorafenib or the EGFR inhibitor Gefitinib at concentrations below their ED50 doses. […] We also evaluated the effects of COG449 in vivo using xenograft experiments. To determine whether COG449 might be effective against TNBC tumors in xenografts, immune compromised NOD/SCID gamma-chain null (NSG) mice were injected with MDA-231 cells into their 4th mammary glands. Once tumors became palpable at around 10 days, tumors were treated by twice weekly subcutaneous injection of COG449 at 10 mg/kg. At 28 days post-xenograft, daily intra-tumor injection of COG449 was initiated and continued until sacrifice (FIG. 30A). […]

B-CLL cells = experiment: Cytotoxicity on patient-derived B-CLL cells (MTS assay)
Excerpt: FIG. 5A: Dose response curves for COG449 cytotoxicity on CLL cells from 4 leukemia patients. Human CLL cells were isolated from blood samples and assayed for COG449 cytotoxicity. […] FIG. 5B: Dose response curves for COG445 on CLL cells from 7 patients or normal B-cells from 5 patients. Human CLL cells and PBMC were isolated and assayed for cytotoxicity of COG445.
Blood from CLL patients was collected and CD5+/CD19+ CLL cells were isolated using the RosetteSep™ Human B-Cell Enrichment Cocktail, according to the manufacturer's instructions, and treated with COG compounds. Compounds were applied to B-CLL cells (2.5×10^5 cells/well in a 96 well plate), after which the cells were treated for 72 hours.
Normal B-cells from volunteers and B-CLL cells from patients are isolated using the RosetteSep™ Human B Cell Enrichment Cocktail according to the manufacturer's instructions. This method depletes whole blood of T cells, monocytes, and NK cells using a proprietary antibody cocktail that cross-links unwanted cells in human whole blood to multiple red blood cells (RBCs) forming immunorosettes. This increases the density of the unwanted (rosetted) cells, such that they pellet along with the free RBCs when centrifuged over a buoyant density medium such as Ficoll-Paque®. […] The purity of these B-cell and B-CLL preparations is then determined by flow cytometry. […]

c-Myc = c-Myc S62 phosphorylation in Raji cells, Western blot; type: cell-based, human; details: 20 hr

| Compound | EC50 (BV2 microglia cells) [nM] | PP2A activation compared with FTY720 (PP2A; 1 μM COG449 versus 5 μM FTY720) | phosphate release due to activation of PP2A relative to untreated control cells (PP2A; 1 μM, 32D:BCR/Abl cells) | phosphorylation of eIF4E (eIF4E) | binding to SET (SET oncoprotein) | EC50 normal B-cells relative to CLL cells (normal B-cells) [fold] | tumor growth ([1]; 5 mg/kg subcutaneous, day 11 to 19, SCID mice) | final tumor mass ([1]; day 19, p<0.001) | Mcl-1 concentration relative to β-Actin (Mcl-1) | tumor growth in xenograft models (MDA-MB-231 xenografts) | Fold Change (B-CLL cells; CLL EC50 relative to COG056 (rev133) = 1.0) | EC50 (B-CLL cells; read-out: CLL EC50, B-CLL cells from patients, 72 hours, MTS assay) [nM] | phosphorylation of c-myc at S62 (c-Myc) | IC50 (BV2 microglia cells; BV2 cells, LPS 100 ng/mL, read-out: IC50 for NO production/release) [nM] | improvement in NO release activity over COG445 (BV2 microglia cells; BV2 microglia) [fold] |
| --- | --- | --- | --- | --- | --- | --- | --- | --- | --- | --- | --- | --- | --- | --- | --- |
| CC(=O)N[C@@H](C)C(=O)N[C@@H](CO)C(=O)NC(C)(C)C(=O)N[C@@H](CC(C)C)C(=O)N[C@@H](CCCNC(=N)N)C(=O)N[C@@H](CCCCN)C(=O)N[C@@H](CC(C)C)C(=O)NC(C)(C)C(=O)N[C@@H](CCCCN)C(=O)N[C@@H](CCCNC(=N)N)C(=O)N[C@@H](CC(C)C)C(=O)N[C@@H](CC(C)C)C(N)=O [COG1410, AS(Aib)LRKL(Aib)KRLL (SEQ ID NO: 5)] (Ac-AS[Aib]LRKL[Aib]KRLL-NH2; N-terminus and C-terminus assumed) | 4500 |  |  |  |  |  |  |  |  |  |  |  |  |  |  |
| I: Ac-RQIKIWFQNRRMKWKKCLRVRLASHLRKLRKRLL-NH2 / II: Ac-RQIKIWFQNRRMKWKKCLRVRLASHLRKLRKRLL-NH2 (linker I:17-II:17 via BMOE) [COG449, COG112-C-BMOE-C-COG112] | 220 | about 20% | increased phosphate release | decreased phosphorylation | found to bind SET | ~200 | significantly inhibited | significantly lower | significant dose-dependent decrease | effective inhibition of tumor growth | 167.5 | 77 | significant reduction | 9.4 | ~2 |
